No constants are given. Whether binding was seen depends on the method and setting. Some entries that bind do so weakly or less than the wild type.
Target: recombinant TNFRSF9 protein (Homo sapiens (Human)) (UniProt Q07011)
Assay: indirect ELISA, plate coated with 0.5 ug/ml recombinant TNFRSF9 protein, OD450 against Log (ng/ml) of antibody

Protein sequences, listed by entry. Tags and fused reporters are not part of them. Lines headed by an entry give the natural chain unless they say otherwise; changes in a name come on top.
UniProt Q07011: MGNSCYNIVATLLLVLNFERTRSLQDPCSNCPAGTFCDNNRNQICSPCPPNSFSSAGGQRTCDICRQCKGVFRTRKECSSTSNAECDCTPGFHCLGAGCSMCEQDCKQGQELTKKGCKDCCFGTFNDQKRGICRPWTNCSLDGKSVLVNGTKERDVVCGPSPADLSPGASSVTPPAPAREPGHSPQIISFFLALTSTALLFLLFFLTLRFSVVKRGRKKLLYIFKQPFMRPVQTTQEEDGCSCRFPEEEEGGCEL

binding: binds
B1: 81E11WTH (antibody, V domains shown)
VH: QSVKESEGGLFKPTDTLTLACTVSGFSLSYNAITWVRQAPGNGLEWIGVINYDGTTVYASWAKSRSTITRNTNLNTVTLKMTSLTAADTATYFCARNFNIWGPGTLVTVSS
VL: AAVLTQTPSPVSVTVGGTVTINCQASQSVDNNNYLAWFQQKPGQPPKQLIYSASTLASGVSSRFKGSGSGTQFTLTISGVQCDDAATYYCLGEFSASSGDWNAFGGGTEVVVK
notes: also called control 81E11WTH

From patent US20260148804A1 (NANJING GENSCRIPT BIOTECH, published 2026)
